Results: PubChem BioAssay (Tox21)
Several values for one entry are separate records, joined by “and”; a condition that tells them apart may be missing. Identical values can stand only once. Inconclusive results, whose numbers are uncertain, are shown with a selection of clear calls. Potencies beside an inconclusive call are fits to weak or partial responses and may not hold up. Activity calls are given as the source filed them. Calls follow the shape of the full dose curve.

Each compound was assayed against Beta-2 adrenergic receptor (Homo sapiens) (UniProt P07550) (assay: Adrenergic beta2 receptor (ADRB2) small molecule agonists, cell-based qHTS assay (AID 1963593;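 as to activation: CHO cells stably overexpressing human ADRB2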)). Conditions: CHO-ADRB2 cells, cAMP HTRF, 30 min; activation: at 92.4 µM (top of the series) unless noted.
How it was run: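 CHO cells stably over-expressing ADRB2 were plated overnight at 37C, then dosed with compounds plus a stimulation mix containing 100uM IBMX and 25uM Ro-20-1724 for 0.5hr at room temperature. cAMP was measured by HTRF competition, 1hr.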
% is scaled to controls: 0 for no effect and ±100 for the full control effect; potency is read from the fitted curve at half-maximal effect.

Row | SMILES | activation | Potency
1 | O=C1C(CCS(=O)c2ccccc2)C(=O)N(c2ccccc2)N1c1ccccc1 (stereo not given) | inconclusive: -33.6% [at 42.5 µM] | –
2 | O=C(O)CNC(=O)CNC(=O)CNC(=O)CSC(=O)c1ccccc1 | – | inactive
3 | C=Cc1ccc(C)cc1 | inconclusive: 1.45% | –
4 | Clc1cccc(C(c2ccc3nc[nH]c3c2)n2ccnc2)c1 (stereo not given) | inconclusive: -37.2% [at 42.5 µM] | –
5 | CNC(=O)c1c(I)c(NC(C)=O)c(I)c(C(=O)O)c1I | – | inactive
6 | CC1=CC[C@@H]2C[C@H]1C2(C)C | – | inconclusive: 0.243 µM [inhibitor, single point]
7 | O=C1Cc2ccccc2C1 | inconclusive: 10.8% | –
8 | COc1c(N2CCNC(C)C2)c(F)cc2c(=O)c(C(=O)O)cn(C3CC3)c12 (stereo not given) | inconclusive: 11.4% [at 42.5 µM] | –
9 | CO[C@@]1(NC(=O)Cc2cccs2)C(=O)N2C(C(=O)O)=C(COC(N)=O)CS[C@@H]21 | – | inactive
10 | O=NN(CCCl)C(=O)NCCCl | – | inactive
11 | CCCCC1CCC(=O)O1 (stereo not given) | inconclusive: 1.05% | –
12 | CC(C)c1cc(C(C)C)cc(C(C)C)c1 | inconclusive: -9.75% | –
13 | CCCCCC(C)N (stereo not given) | inconclusive: 11.7% [at 42.5 µM] | –
14 | CC(C)(C)C(=O)CC(=O)C(C)(C)C | – | inconclusive: 1.08 µM [inhibitor, single point]
15 | C=CC(=O)OCCCCCCCCCC | – | inactive
16 | NCCN1CCNC1=O | – | inconclusive: 21.7 µM [activator, single point]
17 | CC(C)OC(=O)C(O)(CC(=O)O)CC(=O)O | inconclusive: 6.18% | –
18 | Nc1cc(S(=O)(=O)O)ccc1S(=O)(=O)O | inconclusive: 5.68% | –
19 | O=C(O)CCCCCC(=O)O | – | inconclusive: 1.38 µM [inhibitor, single point]
20 | CCOCCOCCOC(C)=O | inconclusive: 10.6% | –

Row | SMILES | activation | Potency
21 | CC(C)C(=O)c1c(C(C)C)nn2ccccc12 | – | inactive
22 | O=[N+]([O-])c1cccc(I)c1 | inconclusive: -15.5% | –
23 | C[C@H](CS)C(=O)N1CCC[C@H]1C(=O)O | – | inactive
24 | CC(=O)c1ccc(Cl)c(Cl)c1Cl | inconclusive: 11.8% | –
25 | CCC(C)(C)C1CCC(OC)CC1 (stereo not given) | – | inactive
26 | Nc1cccc(S(=O)(=O)O)c1 | inconclusive: 3.74% | –
27 | CCNC(=O)NCc1cccc(Cl)c1 | – | inactive
28 | O=S(=O)(O)c1cccc2c(S(=O)(=O)O)cccc12 | – | inactive
29 | CCOC(=O)CCc1ccccc1 | inconclusive: 35.5% | –
30 | CCCNC(C)(C)COC(=O)c1ccccc1 | inconclusive: -4.83% [at 42.5 µM] | –
31 | CC(=O)N1C[C@H](O)C[C@H]1C(=O)O | – | inactive
32 | O=C(Cl)c1c(Cl)c(Cl)c(C(=O)Cl)c(Cl)c1Cl | inconclusive: 10.4% | –
33 | C=C(C)C(=O)OCCOCC | inconclusive: -0.385% | –
34 | CCOC(=O)[C@H](CCc1ccccc1)N[C@@H](C)C(=O)N1CCC[C@H]1C(=O)O | inconclusive: -16.4% [at 42.5 µM] | –
35 | CC(=O)Nc1ccccc1 | – | inactive and inconclusive: 33.5 µM [activator, single point]
36 | CCCCCCCCCCCCCC | – | inactive
37 | CCC(C)(CCC(C)C)C(=O)[O-].CCC(C)(CCC(C)C)C(=O)[O-].[Zn+2] (stereo not given) | inconclusive: -29.5% | –
38 | CCCCCCCC(=O)OCC(O)CO (stereo not given) | – | inconclusive: 13.3 µM [inhibitor, single point]
39 | O=C1CCC(=O)N1 | – | inactive
40 | CC(C)=CCC/C(C)=C/COC=O | inconclusive: 13.3% | –
